Results on one molecule are retold here after PMC11148087.

By UniProt entry, the sequences of proteins in these tests, tags left out.
UniProt Q15561: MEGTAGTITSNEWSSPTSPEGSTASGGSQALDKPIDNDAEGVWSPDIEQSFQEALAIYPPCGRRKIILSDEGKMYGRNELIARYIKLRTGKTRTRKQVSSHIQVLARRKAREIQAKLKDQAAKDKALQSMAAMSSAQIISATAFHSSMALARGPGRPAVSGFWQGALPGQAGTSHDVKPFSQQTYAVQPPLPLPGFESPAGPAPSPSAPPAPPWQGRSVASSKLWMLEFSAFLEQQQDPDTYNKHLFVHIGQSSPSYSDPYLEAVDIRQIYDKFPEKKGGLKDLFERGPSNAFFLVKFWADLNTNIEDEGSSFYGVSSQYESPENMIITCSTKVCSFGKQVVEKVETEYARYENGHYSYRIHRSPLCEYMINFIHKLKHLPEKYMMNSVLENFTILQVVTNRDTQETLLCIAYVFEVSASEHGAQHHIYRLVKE

No constants are given. Whether binding was seen depends on the method and setting. In cells and extracts the contact can be indirect. Some results given as binding are weak or reduced against the parent protein; the word gives no strength.

The target in the assay is TEA domain transcription factor 4 (human (endogenous in LX-2)) (UniProt Q15561). Put plainly: co-IP; 1 mg nuclear extract of LX-2 cells precipitated with 5 ug anti-TEAD4 (ab58310, Abcam) overnight at 4 °C, protein A/G Dynabeads, washes with 25 mM Tris-HCl pH 8.0, 150 mM NaCl, 1 mM EDTA, 0.2% NP-40; BNC2, TEAD4 and YAP1 detected by western blot or simple western immunoassay; also from cells treated with 50 uM OSMI-1 (OGTi) for 24 h, where the complex was diminished. On the technique in general: A western blot detects proteins with antibodies after separation by electrophoresis.

B1: Basonuclin 2 (protein, UniProt Q6ZN30 1-1099)
chain: MAHLGPTPPPHSLNYKSEDRLSEQDWPAYFKVPCCGVDTSQIESEEAEVDVRERETQRDREPKRARDLTLRDSCTDNSMQFGTRTTTAEPGFMGTWQNADTNLLFRMSQQAIRCTLVNCTCECFQPGKINLRTCDQCKHGWVAHALDKLSTQHLYHPTQVEIVQSNVVFDISSLMLYGTQAVPVRLKILLDRLFSVLKQEEVLHILHGLGWTLRDYVRGYILQDAAGKVLDRWAIMSREEEIITLQQFLRFGETKSIVELMAIQEKEGQAVAVPSSKTDSDIRTFIESNNRTRSPSLLAHLENSNPSSIHHFENIPNSLAFLLPFQYINPVSAPLLGLPPNGLLLEQPGLRLREPSLSTQNEYNESSESEVSPTPYKNDQTPNRNALTSITNVEPKTEPACVSPIQNSAPVSDLTKTEHPKSSFRIHRMRRMGSASRKGRVFCNACGKTFYDKGTLKIHYNAVHLKIKHRCTIEGCNMVFSSLRSRNRHSANPNPRLHMPMLRNNRDKDLIRATSGAATPVIASTKSNLALTSPGRPPMGFTTPPLDPVLQNPLPSQLVFSGLKTVQPVPPFYRSLLTPGEMVSPPTSLPTSPIIPTSGTIEQHPPPPSEPVVPAVMMATHEPSADLAPKKKPRKSSMPVKIEKEIIDTADEFDDEDDDPNDGGAVVNDMSHDNHCHSQEEMSPGMSVKDFSKHNRTRCISRTEIRRADSMTSEDQEPERDYENESESSEPKLGEESMEGDEHIHSEVSEKVLMNSERPDENHSEPSHQDVIKVKEEFTDPTYDMFYMSQYGLYNGGGASMAALHESFTSSLNYGSPQKFSPEGDLCSSPDPKICYVCKKSFKSSYSVKLHYRNVHLKEMHVCTVAGCNAAFPSRRSRDRHSANINLHRKLLTKELDDMGLDSSQPSLSKDLRDEFLVKIYGAQHPMGLDVREDASSPAGTEDSHLNGYGRGMAEDYMVLDLSTTSSLQSSSSIHSSRESDAGSDEGILLDDIDGASDSGESAHKAEAPALPGSLGAEVSGSLMFSSLSGSNGGIMCNICHKMYSNKGTLRVHYKTVHLREMHKCKVPGCNMMFSSVRSRNRHSQNPNLHKNIPFTSVD
Turning to B1, the binding result is “binds”.
